Results deposited as PubChem BioAssay AID743121 (NCATS, 2013).
In all, the deposit lists about 26,000 reagents; below is an unselected part. 167 of all reagents (0.63%) were called active. 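Calls are per gene from RSA p-values that are not deposited; an individual active-marked siRNA can sensitise only weakly.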 Unmarked entries are inactive. Reagents against one gene are numbered here. No sequences are given here.

Screen: 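Partners whose loss is lethal together with topoisomerase I blockade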 (primary screen)
Cell system: MDA-MB-231 cells, a human breast cancer line
Reagent: single siRNA against human genes, 20 nM siRNA (0.8 pmol per well)
Timing: 120 h (drug added 48 h after transfection, read 72 h later)
Treatment: camptothecin 20 nM (about EC30) for 72 h; vehicle 0.1% DMSO in parallel plates
Measured: 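Cell viability by ATP luminescence (CellTiter-Glo) as % of non-targeting siRNA wells, and the log2 ratio of viability without drug over viability with camptothecin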
Scale: log2 vehicle/camptothecin viability: higher = stronger sensitisation to camptothecin; viability with camptothecin and viability without drug: higher = more viable cells
Hit rule: 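Each gene scored by redundant siRNA activity (RSA) over its individual siRNA ratios; a gene is called active at p < 0.001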

no.	target gene	reagent no.	log2 vehicle/camptothecin viability	viability with camptothecin (% of control)	viability without drug (% of control)
1	SLC24A3 (GeneID 57419)	1	-0.197	91.7	80
2	SLC24A3 (GeneID 57419)	2	-0.167	40.1	35.7
3	SLC24A3 (GeneID 57419)	3	-0.584	51.2	34.2
4	SLC24A3 (GeneID 57419)	4	0.0892	86.1	91.6
5	ERBB2 (GeneID 2064)	1	-0.356	120	94.1
6	ERBB2 (GeneID 2064)	2	-0.0817	79.8	75.4
7	ERBB2 (GeneID 2064)	3	0.0601	37.9	39.5
8	ERBB2 (GeneID 2064)	4	-0.139	58.6	53.2
9	FNDC3B (GeneID 64778)	1	0.4	24.1	31.9
10	FNDC3B (GeneID 64778)	2	-0.0803	60.4	57.2
11	FNDC3B (GeneID 64778)	3	-0.196	57.4	50.1
12	PLCD4 (GeneID 84812)	1	-0.289	107	87.7
13	PLCD4 (GeneID 84812)	2	-0.102	105	97.8
14	PLCD4 (GeneID 84812)	3	-0.0149	76.3	75.5
15	PLCD4 (GeneID 84812)	4	-0.572	122	82.1
16	AKAP11 (GeneID 11215)	1	-0.196	107	93
17	AKAP11 (GeneID 11215)	2	-0.433	42.4	31.4
18	AKAP11 (GeneID 11215)	3	0.139	79.2	87.2
19	AKAP11 (GeneID 11215)	4	-0.175	88.6	78.4
20	UGT2B4 (GeneID 7363)	1	-0.0792	93.3	88.4
21	UGT2B4 (GeneID 7363)	2	-0.314	94.1	75.7
22	UGT2B4 (GeneID 7363)	3	-0.567	83.1	56.1
23	UGT2B4 (GeneID 7363)	4	-0.463	113	81.8
24	SAA2 (GeneID 6289)	1	-0.456	129	94.1
25	SAA2 (GeneID 6289)	2	0.0166	120	122
26	SAA2 (GeneID 6289)	3	-0.377	102	78.7
27	SAA2 (GeneID 6289)	4	-0.122	39.9	36.7
28	SAA2 (GeneID 6289)	5	-0.0972	41.3	38.6
29	SAA2 (GeneID 6289)	6	-0.146	70.4	63.6
30	ORC6 (GeneID 23594)	1	0.304	35.7	44
31	ORC6 (GeneID 23594)	2	-0.346	106	83.3
32	ORC6 (GeneID 23594)	3	-0.244	97.6	82.4
33	ORC6 (GeneID 23594)	4	-0.0172	75.6	74.7
34	TOB1 (GeneID 10140)	1	-0.161	82.4	73.7
35	TOB1 (GeneID 10140)	2	-0.132	107	97.3
36	TOB1 (GeneID 10140)	3	-0.173	73.2	65
37	TOB1 (GeneID 10140)	4	-0.0592	91.4	87.7
38	SLC9A9 (GeneID 285195)	1	-0.363	43.1	33.6
39	SLC9A9 (GeneID 285195)	2	0.197	65.1	74.6
40	SLC9A9 (GeneID 285195)	3	0.0728	51.1	53.7
41	SLC9A9 (GeneID 285195)	4	-0.133	101	92.4
42	PLPP1 (GeneID 8611)	1	-0.414	65.3	49
43	PLPP1 (GeneID 8611)	2	-0.316	77.7	62.5
44	PLPP1 (GeneID 8611)	3	0.139	45	49.5
45	PLPP1 (GeneID 8611)	4	0.319	75.3	94
46	OR2A4 (GeneID 79541)	1	-0.151	102	91.7
47	OR2A4 (GeneID 79541)	2	-0.553	59.7	40.7
48	OR2A4 (GeneID 79541)	3	0.109	53.1	57.3
49	OR2A4 (GeneID 79541)	4	-0.271	93.1	77.2
50	PRPF31 (GeneID 26121)	1	0.432	21.9	29.5
51	PRPF31 (GeneID 26121)	2	-0.534	62.2	43
52	PRPF31 (GeneID 26121)	3	-0.384	63.8	48.9
53	PRSS30P (GeneID 124221)	1	0.0288	103	105
54	PRSS30P (GeneID 124221)	2	0.172	40.7	45.9
55	PRSS30P (GeneID 124221)	3	-0.0216	87.4	86.1
56	PIP4K2A (GeneID 5305)	1	0.981	47.6	94
57	PIP4K2A (GeneID 5305)	2	-0.357	99	77.3
58	PIP4K2A (GeneID 5305)	3	-0.4	113	85.6
59	PIP4K2A (GeneID 5305)	4	-0.264	99.5	82.9
60	SSR1 (GeneID 6745)	1	0.578	54.2	80.9
61	SSR1 (GeneID 6745)	2	-0.544	84.7	58.1
62	SSR1 (GeneID 6745)	3	-0.169	89	79.1
63	SSR1 (GeneID 6745)	4	-0.371	108	83.1
64	NET1 (GeneID 10276)	1	-0.251	93.7	78.7
65	NET1 (GeneID 10276)	2	0.179	87.8	99.4
66	NET1 (GeneID 10276)	3	-0.14	87	78.9
67	NET1 (GeneID 10276)	4	0.212	78.3	90.7
68	FBXW11 (GeneID 23291)	1	-0.145	96.3	87.1
69	FBXW11 (GeneID 23291)	2	0.0104	76.2	76.7
70	FBXW11 (GeneID 23291)	3	-0.213	112	96.9
71	FBXW11 (GeneID 23291)	4	-0.184	102	89.5

Sorted by “log2 vehicle/camptothecin viability” (ascending): 7 of the entries above.
target gene	reagent no.	log2 vehicle/camptothecin viability	viability with camptothecin (% of control)	viability without drug (% of control)
UGT2B4 (GeneID 7363)	3	-0.567	83.1	56.1
UGT2B4 (GeneID 7363)	4	-0.463	113	81.8
SAA2 (GeneID 6289)	1	-0.456	129	94.1
SAA2 (GeneID 6289)	3	-0.377	102	78.7
SAA2 (GeneID 6289)	4	-0.122	39.9	36.7
SAA2 (GeneID 6289)	5	-0.0972	41.3	38.6
SAA2 (GeneID 6289)	2	0.0166	120	122
